This is one part of the list.
Experiments:
Experiment in all cases: log2 fold change, soluble protein after heating vs DMSO (PISA); higher = thermal stabilisation; K562 cells, 10 uM, 30 min; active = over 0.2 and 3.5 SD of the protein, either way, in both replicates (recomputed)
sotrastaurin = compound: CN1CCN(c2nc(C3=C(c4c[nH]c5ccccc45)C(=O)NC3=O)c3ccccc3n2)CC1 [sotrastaurin]
Procedure, shortened: (§1)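 Soluble protein was quantified by TMTpro 16plex LC-MS/MS after channel sums were equalised. It was obtained as the supernatant after 21,000xg for 90 min from pooled aliquots of K562 cells (2×10^6 cells/mL, 10 μM compound, 30 min) heated for 3 min across 48°C-58°C and extracted in PBS with 0.5% NP-40 at 4°C. Thermal stability values are relative to control samples and come from duplicates. They are given as log2 fold changes.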

Protein sequences, listed by entry. Tags and fused reporters are not part of them. Lines headed by an entry give the natural chain unless they say otherwise; changes in a name come on top.
UniProt Q9NRZ9: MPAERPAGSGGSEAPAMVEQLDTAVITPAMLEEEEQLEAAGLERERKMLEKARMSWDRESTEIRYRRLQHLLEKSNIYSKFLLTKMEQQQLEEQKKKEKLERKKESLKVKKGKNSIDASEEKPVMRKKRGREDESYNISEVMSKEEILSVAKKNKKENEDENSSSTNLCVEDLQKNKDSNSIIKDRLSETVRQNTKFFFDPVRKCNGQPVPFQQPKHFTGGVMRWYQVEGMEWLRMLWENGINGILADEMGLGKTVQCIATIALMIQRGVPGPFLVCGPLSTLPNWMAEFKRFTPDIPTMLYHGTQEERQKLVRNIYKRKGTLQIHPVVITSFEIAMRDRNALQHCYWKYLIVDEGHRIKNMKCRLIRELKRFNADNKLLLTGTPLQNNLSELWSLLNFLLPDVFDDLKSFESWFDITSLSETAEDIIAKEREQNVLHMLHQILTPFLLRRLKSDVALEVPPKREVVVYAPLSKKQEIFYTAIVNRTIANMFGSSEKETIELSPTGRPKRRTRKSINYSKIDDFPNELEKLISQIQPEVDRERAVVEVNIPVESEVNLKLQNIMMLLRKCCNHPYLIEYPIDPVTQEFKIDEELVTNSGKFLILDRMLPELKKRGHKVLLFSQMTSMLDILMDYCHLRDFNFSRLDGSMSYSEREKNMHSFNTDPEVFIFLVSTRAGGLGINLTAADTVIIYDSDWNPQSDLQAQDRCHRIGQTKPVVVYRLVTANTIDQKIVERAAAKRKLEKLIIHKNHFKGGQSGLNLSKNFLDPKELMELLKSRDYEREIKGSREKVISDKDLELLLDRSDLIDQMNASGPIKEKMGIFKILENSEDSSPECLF
UniProt Q99871: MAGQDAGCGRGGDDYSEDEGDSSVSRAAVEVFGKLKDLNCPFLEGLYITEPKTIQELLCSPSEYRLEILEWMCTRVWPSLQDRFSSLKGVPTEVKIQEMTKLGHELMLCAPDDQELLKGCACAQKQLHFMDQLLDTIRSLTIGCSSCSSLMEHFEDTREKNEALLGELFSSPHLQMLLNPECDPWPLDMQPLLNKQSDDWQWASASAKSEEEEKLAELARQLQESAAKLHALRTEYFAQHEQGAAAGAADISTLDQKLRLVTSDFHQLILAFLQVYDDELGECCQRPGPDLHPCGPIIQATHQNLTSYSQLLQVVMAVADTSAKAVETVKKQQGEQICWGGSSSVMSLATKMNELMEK
UniProt P51610: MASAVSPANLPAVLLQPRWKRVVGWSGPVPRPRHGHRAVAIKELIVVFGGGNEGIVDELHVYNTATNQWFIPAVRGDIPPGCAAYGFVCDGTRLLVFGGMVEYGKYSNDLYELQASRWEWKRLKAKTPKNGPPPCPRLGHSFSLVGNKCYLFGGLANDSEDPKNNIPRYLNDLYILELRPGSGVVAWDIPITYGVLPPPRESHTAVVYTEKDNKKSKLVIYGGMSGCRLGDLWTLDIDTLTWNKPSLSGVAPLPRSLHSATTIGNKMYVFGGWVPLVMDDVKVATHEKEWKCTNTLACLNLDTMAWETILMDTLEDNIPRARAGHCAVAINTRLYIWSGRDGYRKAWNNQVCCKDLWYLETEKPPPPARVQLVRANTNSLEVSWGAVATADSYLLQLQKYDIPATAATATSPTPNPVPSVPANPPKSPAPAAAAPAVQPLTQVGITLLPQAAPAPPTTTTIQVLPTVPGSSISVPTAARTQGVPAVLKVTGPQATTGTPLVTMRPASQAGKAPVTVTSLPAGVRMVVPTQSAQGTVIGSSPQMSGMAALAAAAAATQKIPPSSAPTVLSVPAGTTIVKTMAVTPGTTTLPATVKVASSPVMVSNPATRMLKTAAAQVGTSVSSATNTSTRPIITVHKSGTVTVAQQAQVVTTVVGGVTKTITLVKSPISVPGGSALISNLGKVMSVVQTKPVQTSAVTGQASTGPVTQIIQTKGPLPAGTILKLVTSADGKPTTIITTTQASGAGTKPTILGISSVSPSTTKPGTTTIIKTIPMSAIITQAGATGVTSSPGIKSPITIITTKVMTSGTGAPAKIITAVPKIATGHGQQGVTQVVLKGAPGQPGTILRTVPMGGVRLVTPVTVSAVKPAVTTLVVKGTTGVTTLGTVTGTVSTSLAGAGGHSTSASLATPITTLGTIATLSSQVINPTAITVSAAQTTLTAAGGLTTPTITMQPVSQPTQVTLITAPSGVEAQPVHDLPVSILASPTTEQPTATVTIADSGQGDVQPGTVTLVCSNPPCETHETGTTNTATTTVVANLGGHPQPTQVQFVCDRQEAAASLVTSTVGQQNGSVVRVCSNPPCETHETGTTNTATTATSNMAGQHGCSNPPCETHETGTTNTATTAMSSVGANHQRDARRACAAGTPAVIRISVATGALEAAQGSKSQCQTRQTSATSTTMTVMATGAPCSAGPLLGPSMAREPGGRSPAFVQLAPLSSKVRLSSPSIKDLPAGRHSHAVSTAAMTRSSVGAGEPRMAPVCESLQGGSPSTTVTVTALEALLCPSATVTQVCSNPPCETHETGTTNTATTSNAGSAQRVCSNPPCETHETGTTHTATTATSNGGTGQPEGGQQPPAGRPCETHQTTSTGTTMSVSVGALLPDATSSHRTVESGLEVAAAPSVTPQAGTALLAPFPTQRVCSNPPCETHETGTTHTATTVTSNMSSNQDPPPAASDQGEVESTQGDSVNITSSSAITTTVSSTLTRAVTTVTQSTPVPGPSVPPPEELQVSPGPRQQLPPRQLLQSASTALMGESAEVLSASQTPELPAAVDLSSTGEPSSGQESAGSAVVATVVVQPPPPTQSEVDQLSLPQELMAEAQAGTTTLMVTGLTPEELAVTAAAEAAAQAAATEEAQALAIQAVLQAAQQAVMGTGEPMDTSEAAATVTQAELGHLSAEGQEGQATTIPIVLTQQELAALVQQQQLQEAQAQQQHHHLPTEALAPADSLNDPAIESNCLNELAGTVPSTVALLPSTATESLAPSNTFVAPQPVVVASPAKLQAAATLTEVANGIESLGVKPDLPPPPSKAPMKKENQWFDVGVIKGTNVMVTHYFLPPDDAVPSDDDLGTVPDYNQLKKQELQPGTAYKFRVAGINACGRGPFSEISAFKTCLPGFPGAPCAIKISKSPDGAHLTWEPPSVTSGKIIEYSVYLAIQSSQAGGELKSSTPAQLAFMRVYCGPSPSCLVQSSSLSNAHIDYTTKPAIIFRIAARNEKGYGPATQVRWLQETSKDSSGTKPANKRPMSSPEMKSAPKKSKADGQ
UniProt P30711: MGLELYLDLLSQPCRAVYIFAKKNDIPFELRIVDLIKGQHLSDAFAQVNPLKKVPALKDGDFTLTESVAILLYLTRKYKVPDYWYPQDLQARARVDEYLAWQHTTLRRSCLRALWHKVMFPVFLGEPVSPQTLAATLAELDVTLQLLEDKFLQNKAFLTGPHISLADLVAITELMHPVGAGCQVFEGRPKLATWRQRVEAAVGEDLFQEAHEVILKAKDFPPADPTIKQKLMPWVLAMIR
UniProt Q9H116: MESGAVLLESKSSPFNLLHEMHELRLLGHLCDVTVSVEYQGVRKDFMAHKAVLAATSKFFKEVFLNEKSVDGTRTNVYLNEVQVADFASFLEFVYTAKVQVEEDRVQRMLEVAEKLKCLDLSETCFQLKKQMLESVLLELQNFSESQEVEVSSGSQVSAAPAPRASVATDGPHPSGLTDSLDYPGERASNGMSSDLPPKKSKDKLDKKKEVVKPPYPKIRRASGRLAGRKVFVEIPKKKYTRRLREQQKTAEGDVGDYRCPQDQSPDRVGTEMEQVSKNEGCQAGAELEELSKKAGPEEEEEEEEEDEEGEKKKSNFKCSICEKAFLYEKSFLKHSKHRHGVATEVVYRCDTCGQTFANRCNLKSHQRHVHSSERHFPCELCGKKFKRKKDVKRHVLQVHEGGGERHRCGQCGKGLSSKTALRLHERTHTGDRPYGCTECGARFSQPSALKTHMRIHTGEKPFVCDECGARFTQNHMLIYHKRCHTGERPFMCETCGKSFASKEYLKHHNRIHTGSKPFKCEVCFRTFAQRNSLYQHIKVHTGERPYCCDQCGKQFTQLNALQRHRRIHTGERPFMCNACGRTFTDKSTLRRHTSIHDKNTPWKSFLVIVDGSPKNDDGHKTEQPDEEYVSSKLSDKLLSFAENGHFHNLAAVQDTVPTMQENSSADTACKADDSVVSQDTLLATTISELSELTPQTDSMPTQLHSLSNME
UniProt Q9P0R6: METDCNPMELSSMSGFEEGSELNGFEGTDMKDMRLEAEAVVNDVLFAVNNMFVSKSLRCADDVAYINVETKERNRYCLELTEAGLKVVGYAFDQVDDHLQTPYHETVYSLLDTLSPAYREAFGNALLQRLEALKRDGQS
UniProt Q04756: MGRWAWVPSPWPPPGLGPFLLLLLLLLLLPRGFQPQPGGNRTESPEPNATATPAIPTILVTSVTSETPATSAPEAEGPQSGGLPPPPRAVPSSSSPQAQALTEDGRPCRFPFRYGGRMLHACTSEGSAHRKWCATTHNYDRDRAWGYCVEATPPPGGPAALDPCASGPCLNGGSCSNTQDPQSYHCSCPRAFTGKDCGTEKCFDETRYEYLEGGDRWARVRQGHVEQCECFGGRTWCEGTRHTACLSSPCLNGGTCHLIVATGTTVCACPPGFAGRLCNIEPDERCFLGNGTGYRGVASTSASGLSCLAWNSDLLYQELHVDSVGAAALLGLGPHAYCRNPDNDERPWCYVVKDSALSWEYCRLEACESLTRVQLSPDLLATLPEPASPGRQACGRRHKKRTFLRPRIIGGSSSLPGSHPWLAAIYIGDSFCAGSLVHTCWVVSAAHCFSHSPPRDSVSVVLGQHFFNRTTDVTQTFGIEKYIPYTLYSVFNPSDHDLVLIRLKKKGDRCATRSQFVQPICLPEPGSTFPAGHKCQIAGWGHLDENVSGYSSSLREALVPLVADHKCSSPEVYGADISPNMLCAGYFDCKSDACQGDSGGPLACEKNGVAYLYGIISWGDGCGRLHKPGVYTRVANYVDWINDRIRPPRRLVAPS
UniProt Q96MH2: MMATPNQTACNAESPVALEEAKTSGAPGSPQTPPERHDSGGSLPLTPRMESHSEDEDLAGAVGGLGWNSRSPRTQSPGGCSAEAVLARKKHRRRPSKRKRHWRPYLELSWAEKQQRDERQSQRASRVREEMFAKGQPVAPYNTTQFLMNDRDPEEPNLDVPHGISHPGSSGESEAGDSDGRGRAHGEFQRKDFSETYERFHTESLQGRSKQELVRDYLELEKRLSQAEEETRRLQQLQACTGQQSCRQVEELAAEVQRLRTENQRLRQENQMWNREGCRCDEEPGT
UniProt Q6Y1H2: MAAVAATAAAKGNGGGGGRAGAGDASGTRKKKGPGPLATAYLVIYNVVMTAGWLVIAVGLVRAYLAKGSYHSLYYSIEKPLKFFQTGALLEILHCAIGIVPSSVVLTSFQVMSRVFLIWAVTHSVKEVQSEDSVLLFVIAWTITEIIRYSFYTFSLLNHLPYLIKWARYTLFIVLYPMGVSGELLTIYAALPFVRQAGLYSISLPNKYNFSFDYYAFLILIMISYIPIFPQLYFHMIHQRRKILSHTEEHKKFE
UniProt Q8WUI4: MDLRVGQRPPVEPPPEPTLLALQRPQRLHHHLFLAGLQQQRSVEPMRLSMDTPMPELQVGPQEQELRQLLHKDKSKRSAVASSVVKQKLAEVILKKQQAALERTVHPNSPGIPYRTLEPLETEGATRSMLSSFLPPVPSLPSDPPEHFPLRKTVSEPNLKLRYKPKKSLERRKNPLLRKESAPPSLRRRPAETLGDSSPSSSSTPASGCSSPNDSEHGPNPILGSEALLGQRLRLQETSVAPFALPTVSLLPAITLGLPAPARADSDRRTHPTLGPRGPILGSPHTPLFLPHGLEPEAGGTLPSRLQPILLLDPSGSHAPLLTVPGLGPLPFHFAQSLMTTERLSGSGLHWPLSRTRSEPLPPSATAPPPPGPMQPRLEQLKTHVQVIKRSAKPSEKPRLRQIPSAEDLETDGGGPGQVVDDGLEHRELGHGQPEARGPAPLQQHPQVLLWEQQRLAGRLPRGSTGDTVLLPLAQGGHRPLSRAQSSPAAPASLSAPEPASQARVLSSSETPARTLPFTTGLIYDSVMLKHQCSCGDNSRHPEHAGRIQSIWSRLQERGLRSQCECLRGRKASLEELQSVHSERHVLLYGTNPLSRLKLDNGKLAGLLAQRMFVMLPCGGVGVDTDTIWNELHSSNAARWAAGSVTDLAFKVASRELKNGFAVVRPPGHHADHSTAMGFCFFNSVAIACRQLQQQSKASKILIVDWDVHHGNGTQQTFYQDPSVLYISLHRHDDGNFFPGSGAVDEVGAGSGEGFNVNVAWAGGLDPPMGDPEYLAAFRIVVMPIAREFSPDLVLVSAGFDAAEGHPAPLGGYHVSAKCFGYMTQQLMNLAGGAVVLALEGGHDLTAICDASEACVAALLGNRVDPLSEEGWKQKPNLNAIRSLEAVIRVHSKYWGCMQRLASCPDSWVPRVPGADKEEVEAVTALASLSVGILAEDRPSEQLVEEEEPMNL

alvocidib = compound: CN1CC[C@H](c2c(O)cc(O)c3c(=O)cc(-c4ccccc4Cl)oc23)[C@H](O)C1 [alvocidib]
Procedure, shortened: as §1

Tubastatin A = compound: CN1CCc2c(c3ccccc3n2Cc2ccc(C(=O)NO)cc2)C1 [Tubastatin A]
Procedure, shortened: as §1

[1] = compound: CNC(=O)C1=CC=CC=C1NC2=NC(=NC=C2Cl)NC3=C(C=C(C=C3)N4CCOCC4)OC
Procedure, shortened: as §1

defactinib = compound: CNC(=O)c1ccc(Nc2ncc(C(F)(F)F)c(NCc3nccnc3N(C)S(C)(=O)=O)n2)cc1 [defactinib]
Procedure, shortened: as §1

rucaparib = compound: CNCc1ccc(-c2[nH]c3cc(F)cc4c3c2CCNC4=O)cc1 [rucaparib]
Procedure, shortened: as §1

encorafenib = compound: COC(=O)N[C@@H](C)CNc1nccc(-c2cn(C(C)C)nc2-c2cc(Cl)cc(NS(C)(=O)=O)c2F)n1 [encorafenib]
Procedure, shortened: as §1

[2] = compound: COC(=O)[C@H](CCSC)NC(=O)C1=C(C=C(C=C1)NC[C@H](CS)N)C2=CC=CC=C2
Procedure, shortened: as §1

[3] = compound: COC1=CC=C(C=C1)CN2C=CC3=C2C=C(C=C3)C(=O)NO
Procedure, shortened: as §1

filanesib = compound: CON(C)C(=O)N1N=C(c2cc(F)ccc2F)S[C@@]1(CCCN)c1ccccc1 [filanesib]
Procedure, shortened: as §1

zotarolimus = compound: CO[C@H]1C[C@@H]2CC[C@@H](C)[C@@](O)(O2)C(=O)C(=O)N2CCCC[C@H]2C(=O)O[C@H]([C@H](C)C[C@@H]2CC[C@H](n3cnnn3)[C@H](OC)C2)CC(=O)[C@H](C)/C=C(\C)[C@@H](O)[C@@H](OC)C(=O)[C@H](C)C[C@H](C)/C=C/C=C/C=C/1C [zotarolimus]
Procedure, shortened: as §1

idasanutlin = compound: COc1cc(C(=O)O)ccc1NC(=O)[C@@H]1N[C@@H](CC(C)(C)C)[C@](C#N)(c2ccc(Cl)cc2F)[C@H]1c1cccc(Cl)c1F [idasanutlin]
Procedure, shortened: as §1

alisertib = compound: COc1cc(Nc2ncc3c(n2)-c2ccc(Cl)cc2C(c2c(F)cccc2OC)=NC3)ccc1C(=O)O [alisertib]
Procedure, shortened: as §1

[4] = compound: COc1cc2nc(-c3cc(F)ccc3O)nc(N[C@@H]3CNC[C@H]3C(C)(C)O)c2cc1OC
Procedure, shortened: as §1

gefitinib = compound: COc1cc2ncnc(Nc3ccc(F)c(Cl)c3)c2cc1OCCCN1CCOCC1 [gefitinib]
Procedure, shortened: as §1

[5] = compound: COc1cccc2cc(-c3nc([C@H]4CC[C@H](C(=O)O)CC4)n4ncnc(N)c34)[nH]c12
Procedure, shortened: as §1

lapatinib = compound: CS(=O)(=O)CCNCc1ccc(-c2ccc3ncnc(Nc4ccc(OCc5cccc(F)c5)c(Cl)c4)c3c2)o1 [lapatinib]
Procedure, shortened: as §1

pictilisib = compound: CS(=O)(=O)N1CCN(Cc2cc3nc(-c4cccc5[nH]ncc45)nc(N4CCOCC4)c3s2)CC1 [pictilisib]
Procedure, shortened: as §1

saracatinib = compound: CN1CCN(CCOc2cc(OC3CCOCC3)c3c(Nc4c(Cl)ccc5c4OCO5)ncnc3c2)CC1 [saracatinib]
Procedure, shortened: as §1

[6] = compound: CNc1nc(-c2ccc3c(N)n[nH]c3c2)cc(N2C[C@@H](C(=O)NC3CCCCC3)CC[C@H]2C)n1
Procedure, shortened: as §1

Measured: log2 fold change

HDAC4 (UniProt P56524)
inactive: sotrastaurin -0.028 | alvocidib 0.11 | Tubastatin A 0.23 | [1] -0.222 | defactinib -0.041 | rucaparib 0.03 | encorafenib -0.133 | [2] 0.104 | [3] 0.002 | filanesib 0.022 | zotarolimus -0.08 | idasanutlin 0.127 | alisertib -0.004 | [4] -0.051 | gefitinib -0.046 | [5] 0.072 | lapatinib -0.111 | pictilisib -0.05

HELLS (UniProt Q9NRZ9)
inactive: pictilisib 0.176

HAUS5 (UniProt O94927)
inactive: saracatinib -0.068 | sotrastaurin 0.298 | Tubastatin A 0.021 | rucaparib 0.029 | [6] 0.136 | encorafenib -0.08 | [3] 0.12 | filanesib -0.148 | idasanutlin 0.023 | alisertib -0.105 | [4] 0.224 | gefitinib 0.1 | [5] -0.215 | lapatinib -0.093 | pictilisib -0.154

HAUS7 isoform 2 (UniProt Q99871)
inactive: defactinib 0.056 | [2] 0.084 | idasanutlin 0.208

HABP4 (UniProt Q5JVS0)
inactive: [1] 0.023

GYG2 (UniProt O15488)
inactive: [1] -0.028 | alisertib 0.202 | [5] 0.085

H3-2 (UniProt Q5TEC6)
inactive: sotrastaurin 0.265 | [1] -0.072 | defactinib 0.038 | rucaparib 0.203 | encorafenib -0.132 | [2] 0.068 | [3] -0.039 | filanesib 0.358 | alisertib 0.041 | [4] 0.326 | gefitinib 0.245 | [5] 0.163 | lapatinib -0.539 | pictilisib -0.035

HACE1 (UniProt Q8IYU2)
inactive: Tubastatin A 0.086 | [1] 0.069

H2AFY (UniProt O75367)
inactive: alvocidib -0.024 | Tubastatin A -0.024 | [1] -0.19 | rucaparib 0.247 | encorafenib 0.166 | [3] 0.11 | zotarolimus -0.267 | alisertib 0.345 | [4] -0.199 | gefitinib 0.095 | [5] -0.132 | lapatinib 0.058 | pictilisib 0.082

HAUS3 (UniProt Q68CZ6)
inactive: saracatinib -0.194 | alvocidib 0.205 | Tubastatin A -0.063 | [1] 0.085 | defactinib 0.174 | rucaparib 0.573 | [6] 0.166 | encorafenib 0.215 | [2] -0.308 | [3] -0.059 | zotarolimus 0.021 | idasanutlin 0.201 | alisertib -0.412 | [4] 0.008 | [5] -0.341 | lapatinib -0.039

HCFC1 (UniProt P51610)
inactive: sotrastaurin 0.143 | Tubastatin A 0.079 | [1] 0.141 | defactinib -0.283 | rucaparib -0.19 | encorafenib -0.055 | [2] 0.132 | [3] 0.02 | filanesib -0.002 | alisertib -0.008 | gefitinib -0.088 | [5] 0.148 | pictilisib 0.023

GSTT1 (UniProt P30711)
inactive: saracatinib -0.011 | Tubastatin A 0.015 | [1] -0.029 | defactinib -0.027 | rucaparib 0.028 | [6] 0 | encorafenib 0.023 | [2] -0.062 | [3] 0.014 | zotarolimus 0.07 | idasanutlin 0 | alisertib -0.118 | [4] -0.015 | gefitinib 0.023 | [5] 0.029 | lapatinib 0.003 | pictilisib 0.027

GZF1 (UniProt Q9H116)
inactive: saracatinib -0.097 | sotrastaurin -0.034 | defactinib 0.202 | [6] 0.105 | [2] -0.009 | filanesib -0.039 | idasanutlin 0.401

Two records picked at random from the list so far:
H2AFY (UniProt O75367)
inactive: alvocidib -0.024 | Tubastatin A -0.024 | [1] -0.19 | rucaparib 0.247 | encorafenib 0.166 | [3] 0.11 | zotarolimus -0.267 | alisertib 0.345 | [4] -0.199 | gefitinib 0.095 | [5] -0.132 | lapatinib 0.058 | pictilisib 0.082

GSTT1 (UniProt P30711)
inactive: saracatinib -0.011 | Tubastatin A 0.015 | [1] -0.029 | defactinib -0.027 | rucaparib 0.028 | [6] 0 | encorafenib 0.023 | [2] -0.062 | [3] 0.014 | zotarolimus 0.07 | idasanutlin 0 | alisertib -0.118 | [4] -0.015 | gefitinib 0.023 | [5] 0.029 | lapatinib 0.003 | pictilisib 0.027

Additional entries

H1-0 (UniProt P07305)
inactive: saracatinib -0.073 | rucaparib -0.048 | [6] -0.24 | encorafenib -0.202

GSKIP (UniProt Q9P0R6)
inactive: saracatinib -0.05 | alvocidib 0.167 | Tubastatin A 0.008 | [1] 0.025 | defactinib 0.13 | rucaparib 0.055 | [6] -0.02 | encorafenib -0.095 | [2] 0.027 | [3] 0.011 | zotarolimus -0.046 | idasanutlin -0.079 | alisertib 0.274 | [4] -0.039 | gefitinib -0.001 | [5] -0.009 | lapatinib -0.057 | pictilisib 0.135

HGFAC (UniProt Q04756)
inactive: saracatinib 0.342 | Tubastatin A -0.302 | [1] 0.047 | [6] 0.179 | [3] -0.195 | alisertib 0.069 | [4] -0.078 | gefitinib 0.098 | [5] 0.413 | lapatinib 0.075

HEXIM2 (UniProt Q96MH2)
inactive: defactinib -0.213 | [2] 0.029 | [3] -0.017 | pictilisib -0.082

HACD2 (UniProt Q6Y1H2)
inactive: alvocidib -0.101 | Tubastatin A 0.015 | [1] 0.046 | zotarolimus 0.035 | alisertib 0.109 | [4] -0.023 | [5] 0.077 | lapatinib 0.092

HDAC7 isoform 5 (UniProt Q8WUI4)
inactive: saracatinib -0.04 | sotrastaurin -0.048 | [1] -0.2 | defactinib -0.011 | rucaparib -0.033 | [6] 0 | encorafenib -0.016 | [2] 0.012 | filanesib 0.121 | zotarolimus 0.054 | idasanutlin 0.024 | alisertib -0.075 | [4] 0.075 | gefitinib -0.015 | [5] 0.046 | lapatinib 0.071 | pictilisib -0.004
